The test relates to BDF1 mice, M5076 sarcoma s.c., survival/tumor T/C. Description: NCI In Vivo Anticancer Drug Screen. Data for tumor model Sarcoma M5076 (subcutaneous) in B6D2F1 (BDF1) mice. The following applies: vehicle: saline + alcohol. How it is done: The antitumor activity of compounds was measured in mice bearing transplantable tumors. Survival or tumor size were measured and the results are expressed as the measurement made in the treated group (T) divided by the measurement made in the vehicle treated control group (C). The tumor model used in this assay is Sarcoma M5076 (subcutaneous) in B6D2F1 (BDF1) mice

[1] abbreviates: T/C endpoint: mean tumor weight, dose: 1.25 mg/kg/injection, schedule: Q02DX011 (ip), evaluated on day 22, higher T/C = larger tumour.
[2] abbreviates: T/C endpoint: median tumor weight (est.), dose: 1.25 mg/kg/injection, schedule: Q02DX011 (ip), evaluated on day 22, higher T/C = larger tumour.

These results are taken from PubChem BioAssay AID288 (DTP/NCI, 2004).

The list does not hold the whole screen: it gathers some chemical classes. Other doses and runs of a compound may be missing. T/C: endpoint of the treated group in % of that of the vehicle group. Schedules are NCI's codes, read here as Q, the interval in days (D) or hours (H), X, the number of doses. Some entries show no survivor count and are marked so; the dose need not have been tolerated. Some entries hold several experiments; their values stand side by side, smallest first. For survival time, this PubChem deposit counts one and a half times the control or more as active, and values a quarter to a half above the control carry no call in these data; other NCI protocols may use other cut-offs.

In the case of `CC(=O)OCC12CCC(C)=CC1OC1C(O)C(OC(C)=O)C2(C)C12CO2` (stereo not drawn), the T/C was 48 % of control [survivor count not shown] under setting [1]; 58 % of control [survivor count not shown] (T/C endpoint: mean tumor weight, dose: 1.3 mg/kg/injection, schedule: Q02DX011 (ip), evaluated on day 22, higher T/C = larger tumour); 97 % of control [survivor count not shown] (T/C endpoint: median survival time, dose: 0.78 mg/kg/injection, schedule: Q04DX004 (ip), higher T/C = longer survival); 141 % of control [survivor count not shown] (T/C endpoint: median survival time, dose: 0.78 mg/kg/injection, schedule: Q04DX004 (iv), higher T/C = longer survival); 100 % of control [survivor count not shown] (T/C endpoint: median survival time, dose: 1.3 mg/kg/injection, schedule: Q04DX004 (ip), higher T/C = longer survival); 96 % of control [survivor count not shown] (T/C endpoint: median survival time, dose: 1.3 mg/kg/injection, schedule: Q04DX004 (iv), higher T/C = longer survival). Moreover, the T/C runs as follows: (T/C endpoint: median survival time, dose: 2.16 mg/kg/injection, schedule: Q04DX004 (ip), higher T/C = longer survival) 106 % of control [survivor count not shown]; (T/C endpoint: median survival time, dose: 2.16 mg/kg/injection, schedule: Q04DX004 (iv), higher T/C = longer survival) 109 % of control [survivor count not shown]; (T/C endpoint: median survival time, dose: 3.6 mg/kg/injection, schedule: Q04DX004 (ip), higher T/C = longer survival) 120 % of control [survivor count not shown]; (T/C endpoint: median survival time, dose: 3.6 mg/kg/injection, schedule: Q04DX004 (iv), higher T/C = longer survival) 125 % of control [survivor count not shown]; (T/C endpoint: median survival time, dose: 6.0 mg/kg/injection, schedule: Q04DX004 (ip), higher T/C = longer survival) 138 % of control [survivor count not shown]; (T/C endpoint: median survival time, dose: 6.0 mg/kg/injection, schedule: Q04DX004 (iv), higher T/C = longer survival) 134 % of control [survivor count not shown]. In addition, the T/C by setting is: under setting [2], 70 % of control [survivor count not shown]; (T/C endpoint: median tumor weight (est.), dose: 1.3 mg/kg/injection, schedule: Q02DX011 (ip), evaluated on day 22, higher T/C = larger tumour) 52 % of control [survivor count not shown].
Regarding `CC(=O)OC[C@]12C[C@H](OC(=O)CC(C)C)C(C)=C[C@H]1OC1[C@H](O)[C@@H](OC(C)=O)[C@@]2(C)[C@@]12CO2`, the T/C is 86 [survivor count not shown] and 141 % of control [survivor count not shown] (T/C endpoint: mean tumor weight, dose: 0.63 mg/kg/injection, schedule: Q02DX011 (ip), evaluated on day 22, higher T/C = larger tumour); 17 [survivor count not shown] and 35 % of control [survivor count not shown] under setting [1]; 84 [survivor count not shown] and 87 % of control [survivor count not shown] (T/C endpoint: median tumor weight (est.), dose: 0.63 mg/kg/injection, schedule: Q02DX011 (ip), evaluated on day 22, higher T/C = larger tumour); 11 [survivor count not shown] and 14 % of control [survivor count not shown] under setting [2].
